# Source: patent US20230202981A1, “NOVEL SMALL MOLECULES FOR TARGETED DEGRADATION OF UNTARGETABLE KRAS IN CANCER THERAPY” (Pillai Universal LLC, priority 2020, published 2023)
# Some of these results come from one statement about several compounds together.
# System: GTP-KRAS in KRAS G12C, G12V, G12D, and G13D mutant cells
# Assay: RAS activation assay, formation of GTP-bound KRAS in mutant cells
# Type: cell-based
# Text: Actually, mutant KRAS would interfere the balance between GEFs and GAPs, resulting in locking in the active GTP-bound KRAS state and aberrant stimulation of its downstream signaling.
compound,measurement,value
CCCCc1ncc(C(=O)C2CC=C(C(N)=O)N2)cc1C(=O)OCC (stereo not shown) [Compound 1],GTP-KRAS accumulation on binding with KRAS,promotes accumulation of GTP-KRAS
